The source of these data is patent US20050288273A1, “Antibacterial agents” (priority 2003, published 2005).

`CC(C)C(=O)NC[C@H]1CN(c2ccc3c(c2)CCCc2cn[nH]c2-3)C(=O)O1` showed a melting point of 238 to 240 °C.

By melting point is commonly meant the temperature of the solid-liquid transition.
